Measurements taken from the supplement of paper PMC12009310.
Where a name gives a salt, the structure may show the parent alone. ± gives the standard deviation of the averaged measurements. This is one part of the list. Part of the spread comes from offsets between plates or batches.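 The cells are a mouse kidney inner medullary collecting duct line, silenced either for the ciliary gene Rpgrip1l or with a non-targeting control siRNA.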

How the values were obtained:
mIMCD3 [1] = experiment: robust z score of cell number vs plate controls; higher = more cells (less cytotoxic); settings: 10 µM, 48 h
mIMCD3 [2] = experiment: robust z score of cilia incidence (% cells with single cilium) vs plate controls; higher = more ciliated cells; settings: 10 µM; 48 h; siRNA: siScr
mIMCD3 [3] = experiment: robust z score of cilia incidence (% cells with single cilium) vs plate controls; higher = more ciliated cells (rescue of cilia loss); settings: 10 µM; 48 h; siRNA: siRpgrip1l

Row | Structure (SMILES) | robust z score of cell number (mIMCD3 [1]; siRNA: siRpgrip1l) | robust z score of cell number (mIMCD3 [1]; siRNA: siScr) | robust z score of cilia incidence (mIMCD3 [2]) | robust z score of cilia incidence (mIMCD3 [3])
1 | COc1cc(C[C@H]2C(=O)OC[C@@H]2Cc2ccc(OC)c(OC)c2)ccc1O [Arctigenin] | -19.8 ± 15 | -21.7 ± 11 | -32.9 ± 40 | -30.6 ± 4.9
2 | O=C(O)Cc1nn(Cc2ccc(Br)cc2F)c(=O)c2ccccc12 [Statil] | -2.09 ± 3.8 | -1.49 ± 3.1 | -1.55 ± 1.4 | -6.17 ± 3.4
3 | CC(C)NC[C@H](O)COc1ccc(CC(N)=O)cc1 [S-(-)-Atenolol] | -1.55 ± 4.4 | -0.718 ± 11 | 0.908 ± 3.9 | -5.61 ± 2.6
4 | Nc1ncnc2nc(-c3ccc(N4CCOCC4)nc3)cc(-c3cccc(Br)c3)c12 [ABT 702 dihydrochloride] | -10.9 ± 4.8 | -4.1 ± 5.4 | -2.7 ± 2.9 | -11.9 ± 8.7
5 | CCCCN1CCCC1CNC(=O)c1cc(C#N)c2ccccc2c1OC (configuration not stated) [Nafadotride] | -52.1 ± 65 | -11.3 ± 1.6 | -11.8 ± 15 | -12.8 ± 0.43
6 | CN(C)CCCSC(=N)N [Dimaprit dihydrochloride] | -14.8 ± 12 | -4.83 ± 3.9 | 1.21 ± 0.6 | -13.3 ± 3.2
7 | CS(=O)(=O)CCNCc1nc(-c2ccc3ncnc(Nc4ccc(OCc5cccc(F)c5)c(Cl)c4)c3c2)cs1 | -102 ± 78 | -141 ± 130 | -15 ± 1.1 | -47.4 ± 1.5
8 | COc1ccc2[nH]c([S+]([O-])Cc3ncc(C)c(OC)c3C)nc2c1 (configuration not stated) [Omeprazole] | -8.45 ± 5 | -18 ± 2.2 | 0.346 ± 0.97 | -16.6 ± 3.9
9 | O=C(/C=C/c1ccc(O)c(O)c1)OCCc1ccccc1 [Caffeic acid phenethyl ester] | -31.8 ± 30 | -14.3 ± 14 | -26.1 ± 17 | -28.2 ± 6.3
10 | C[C@@H](CN1CCC(n2c(=O)[nH]c3cc(Cl)ccc32)CC1)NC(=O)c1ccc2ccccc2c1 | -2.98 ± 1.3 | -0.8 ± 1.4 | -0.0543 ± 0.63 | -4.77 ± 1.3
11 | CCCCn1c(=O)c2[nH]c(C34CC5CC(CC3C5)C4)nc2n(CCCO)c1=O | -22.7 ± 12 | -35.4 ± 27 | -16.7 ± 3.2 | -46 ± 19
12 | Oc1ccc(Nc2nc(-c3ccc(Cl)cc3)cs2)cc1 | -40.6 ± 26 | -54.6 ± 29 | -18.6 ± 4.7 | -33.3 ± 7.2
13 | Cc1cccc(C#Cc2ccccc2)n1 [MPEP hydrochloride] | -3 ± 0.11 | -2.72 ± 1.6 | -0.283 ± 0.039 | -16.9 ± 7.1
14 | O=C(/C=C/c1ccc(O)c(O)c1)O[C@H](Cc1ccc(O)c(O)c1)C(=O)O [Rosmarinic acid] | -11.8 ± 6.8 | -8.06 ± 12 | 0.799 ± 2 | -8.41 ± 1
15 | [O-][S+](c1ccccc1)c1ccc2nnnn2n1 (configuration not stated) | -43.8 ± 40 | -44.1 ± 29 | -76.7 ± 60 | -57.8 ± 46
16 | N[C@@H](CSS(=O)(=O)O)C(=O)O [S-Sulfo-L-cysteine sodium salt] | 6.94 ± 7.5 | 1.99 ± 5.3 | -1.43 ± 2 | -4.84 ± 1.8
17 | COCC(=O)O[C@]1(CCN(C)CCCc2nc3ccccc3[nH]2)CCc2cc(F)ccc2[C@@H]1C(C)C [Mibefradil dihydrochloride] | -41.1 ± 27 | -54.5 ± 29 | -33.3 ± 15 | -58.9 ± 5.2
18 | O=C(c1ccc(F)cc1)C1CCN(CCCCc2ccccc2)CC1 [4-(4-Fluorobenzoyl)-1-(4-phenylbutyl)-piperidine oxalate] | -9.33 ± 7 | -7.92 ± 10 | -4.9 ± 2 | -13 ± 8.7
19 | Cc1nc2c(c(=O)[nH]1)CSCC2 | -4.91 ± 3.1 | -14 ± 10 | -3.06 ± 2.2 | -14.5 ± 3.6
20 | OCCN(CCO)c1nc(N2CCCCC2)c2nc(N(CCO)CCO)nc(N3CCCCC3)c2n1 [Dipyridamole] | -9.17 ± 2.8 | -9.56 ± 2.5 | -11.6 ± 1.6 | -22.6 ± 0.26
21 | COc1ccc(CC(=O)NC(/N=C(\NC#N)Nc2cccc3ncccc23)C(C)(C)C)cc1OC (configuration not stated) | -49.2 ± 60 | -7.44 ± 7 | -12.1 ± 18 | -8.49 ± 2.5
22 | O=C1NC(=O)C(c2ccccc2[N+](=O)[O-])=C1Nc1ccc(O)c(Cl)c1 | -21.1 ± 28 | -0.804 ± 1 | 2.21 ± 0.12 | -147 ± 140
23 | COC(=O)c1c(C)[nH]c(C)c1C(=O)c1ccccc1Cc1ccccc1 | -91.4 ± 87 | -8.88 ± 2.4 | -0.511 ± 1.1 | -12.1 ± 0.26
24 | CN1CCC[C@@H]1CCO[C@](C)(c1ccccc1)c1ccc(Cl)cc1 [Clemastine fumarate] | -139 ± 150 | -40.2 ± 9 | -26.9 ± 9.2 | -403 ± 240
25 | COc1ccc(CCN(C)CCc2ccc(OC)c(OC)c2)cc1OC [YS-035 hydrochloride] | 7.53 ± 14 | -3.98 ± 1.8 | -0.591 ± 1.4 | -8.64 ± 9.2
26 | CCOC(=O)c1ncc2[nH]c3cccc(OC(C)C)c3c2c1C | -41.3 ± 27 | -54.4 ± 29 | -34.1 ± 15 | -51.4 ± 25
27 | O=C1c2ccccc2C(Cc2ccncc2)(Cc2ccncc2)c2ccccc21 [XE 991 dihydrochloride] | -2.23 ± 0.24 | -4.15 ± 5.8 | 0.964 ± 1.5 | -13.6 ± 7.5
28 | COc1ccc2c(c1OC)C(=O)O[C@@H]2[C@H]1c2c(cc3c(c2OC)OCO3)CCN1C [Noscapine hydrochloride] | -6.75 ± 5.7 | -4.27 ± 1.9 | -13.8 ± 15 | -26.7 ± 12

Copied from the list:
Entry for O=C(/C=C/c1ccc(O)c(O)c1)O[C@H](Cc1ccc(O)c(O)c1)C(=O)O [Rosmarinic acid] under robust z score of cell number (mIMCD3 [1]; siRNA: siRpgrip1l): -11.8 ± 6.8
Entry for CCCCN1CCCC1CNC(=O)c1cc(C#N)c2ccccc2c1OC (configuration not stated) [Nafadotride] under robust z score of cilia incidence (mIMCD3 [3]): -12.8 ± 0.43
